Measured values reported in paper PMC7865483.
No constants are given. Whether binding was seen depends on the method and setting. In cells and extracts the contact can be indirect. Some results given as binding are weak or reduced against the parent protein; the word gives no strength.

Sequences of proteins named here, by UniProt entry; tags and fusion partners are left off.
UniProt Q8TE04: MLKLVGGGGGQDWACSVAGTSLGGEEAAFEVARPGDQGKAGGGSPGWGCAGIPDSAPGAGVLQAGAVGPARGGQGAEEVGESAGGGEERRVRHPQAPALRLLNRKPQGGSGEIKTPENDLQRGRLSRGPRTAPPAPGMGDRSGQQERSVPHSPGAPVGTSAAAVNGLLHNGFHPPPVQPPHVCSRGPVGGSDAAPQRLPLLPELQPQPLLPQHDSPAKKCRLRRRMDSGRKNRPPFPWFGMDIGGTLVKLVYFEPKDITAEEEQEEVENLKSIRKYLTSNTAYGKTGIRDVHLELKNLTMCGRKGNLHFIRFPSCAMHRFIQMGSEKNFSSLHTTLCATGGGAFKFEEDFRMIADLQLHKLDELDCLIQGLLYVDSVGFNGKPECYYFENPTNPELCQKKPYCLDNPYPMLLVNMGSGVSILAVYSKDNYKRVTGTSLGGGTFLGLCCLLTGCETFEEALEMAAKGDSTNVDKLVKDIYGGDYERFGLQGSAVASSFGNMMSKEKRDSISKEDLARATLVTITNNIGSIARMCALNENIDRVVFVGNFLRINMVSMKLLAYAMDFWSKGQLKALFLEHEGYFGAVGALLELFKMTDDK
UniProt Q9HAB8: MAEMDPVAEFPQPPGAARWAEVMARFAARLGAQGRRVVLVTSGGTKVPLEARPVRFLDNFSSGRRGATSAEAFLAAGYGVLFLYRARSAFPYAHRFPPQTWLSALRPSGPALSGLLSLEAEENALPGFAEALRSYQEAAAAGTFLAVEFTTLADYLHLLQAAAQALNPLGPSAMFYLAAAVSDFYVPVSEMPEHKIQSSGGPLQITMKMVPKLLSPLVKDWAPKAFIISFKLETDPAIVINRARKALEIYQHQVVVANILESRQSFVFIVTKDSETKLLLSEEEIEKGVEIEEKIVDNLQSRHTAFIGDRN

Assays:
[1] = target: Pank1 (pantothenate kinase 1), endogenous in A549 cells (human (endogenous in A549)) (UniProt Q8TE04); experiment: condition: only exponentially growing cells in full medium, without serum starvation or H2O2; proximity ligation; in situ PLA (Duolink) on fixed A549 cells, endogenous proteins; control cells growing exponentially in full medium, not starved or treated
[2] = target: Pank1 (pantothenate kinase 1), endogenous in A549 cells (human (endogenous in A549)) (UniProt Q8TE04); experiment: proximity ligation; in situ PLA (Duolink) on fixed A549 cells, endogenous proteins; cells serum-starved for 24 h, or serum-starved and then treated with 500 μM H2O2

“4′-phosphopantothenoylcysteine synthetase (PPCS) (from UniProt Q9HAB8 1-311) (enzyme)” was tested. Which binding [1] did it give?
Its binding is “no binding”.

And the binding [2]?
The binding was “binds”.
